Measured values from PMC8280061, “A novel ligand of the translationally controlled tumor protein (TCTP) identified by virtual drug screening for cancer differentiation therapy” (Investigational New Drugs, 2021).
These are yes or no findings as the source states them, for the method shown. In cells and extracts the contact can be indirect. Some binding calls cover weakened binding; strength is not graded here.

Target: T1, translationally controlled tumor protein (TCTP) (human (endogenous in MOLT-4)) (UniProt P13693)
T1 sequence: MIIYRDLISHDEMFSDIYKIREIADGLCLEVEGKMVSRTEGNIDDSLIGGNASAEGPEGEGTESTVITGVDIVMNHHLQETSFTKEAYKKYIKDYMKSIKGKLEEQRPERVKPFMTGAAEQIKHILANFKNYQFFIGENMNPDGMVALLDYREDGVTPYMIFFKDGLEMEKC
Assay: co-IP; TCTP polyclonal antibody coupled to Dynabeads M-270 Epoxy; lysates of MOLT-4 cells treated 24 h with DMSO, ZINC10157406 (IC50, 2 x IC50) or artesunate; detergent lysis, 0.5% DTT in extraction buffer; Western blot for TCTP and p53

binding: binds
Substance: tumor suppressor p53 (from UniProt P04637 1-393)
